Measured data: PubChem BioAssay AID504784 (Drosophila RNAi Screening Center, 2011)

- Aim: 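Search for regulators of lipid droplet storage in oleate-fed fly cells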 (primary screen)
- Cells: Drosophila Kc167 embryonic cells
- Reagents: long dsRNA against Drosophila genes, about 250 ng dsRNA per well
- Time to read-out: 4 days
- Treatment: cells fed 400 µM oleic acid bound to BSA
- Detection: 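Cells imaged and segmented; ratio of lipid droplet area to nuclear area, log-transformed, then normalised as a B-score over the screen; higher means more stored lipid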
- Direction: droplet/nuclear area B-score: higher = more stored lipid (overstorage)
In all, the deposit lists about 17,000 reagents; this is a random part of those with a known target gene and a result. 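Each column is one replicate's B-score; the combined score over replicates was not deposited, so single values may mislead.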

With knock-down of CG1309 [DRSC08302] the results were droplet/nuclear area B-score, replicate 1 = 0.0544; droplet/nuclear area B-score, replicate 2 = 0.0473. CG17376 [DRSC21717] showed droplet/nuclear area B-score, replicate 1 = 1.85; droplet/nuclear area B-score, replicate 2 = 0.363. For CG9018 [DRSC08618], the values are droplet/nuclear area B-score, replicate 1 = -0.332; droplet/nuclear area B-score, replicate 2 = -0.0329. CG14810 [DRSC17693] showed droplet/nuclear area B-score, replicate 2 = -0.113. CG14810 [DRSC17961] scored droplet/nuclear area B-score, replicate 1 = 0.662; droplet/nuclear area B-score, replicate 2 = 0.21. PGS1 (Phosphatidylglycerophosphate synthase 1) [DRSC16304] scored droplet/nuclear area B-score, replicate 1 = 0.566; droplet/nuclear area B-score, replicate 2 = 0.667.

After knock-down of CG10909 [DRSC14282], the record shows droplet/nuclear area B-score, replicate 1 = 0.176; droplet/nuclear area B-score, replicate 2 = -1.77. After knock-down of CG14630 [DRSC18166], the screen gave droplet/nuclear area B-score, replicate 1 = -1.88; droplet/nuclear area B-score, replicate 2 = -0.477. CG14630 [DRSC18653] scored droplet/nuclear area B-score, replicate 1 = -1.15; droplet/nuclear area B-score, replicate 2 = -0.0848. For CG43394 [DRSC01013], the entry reads droplet/nuclear area B-score, replicate 1 = -0.916; droplet/nuclear area B-score, replicate 2 = 0.000676.

Individual results from the entries so far.
CG9018 [DRSC08618], droplet/nuclear area B-score, replicate 2: -0.0329
CG10909 [DRSC14282], droplet/nuclear area B-score, replicate 1 = 0.176

The listing continues.
Ptp36E (Protein tyrosine phosphatase 36E) [DRSC03021] scored droplet/nuclear area B-score, replicate 1 = 0.000693; droplet/nuclear area B-score, replicate 2 = -1.78. After knock-down of Dh44 (Diuretic hormone 44) [DRSC12747], the screen gave droplet/nuclear area B-score, replicate 1 = -0.521; droplet/nuclear area B-score, replicate 2 = 0.634. Knock-down of Dh44 (Diuretic hormone 44) [DRSC16409] came out at: droplet/nuclear area B-score, replicate 1 = -0.277; droplet/nuclear area B-score, replicate 2 = -1.06. Depletion of CG13251 [DRSC11699] resulted in: droplet/nuclear area B-score, replicate 1 = 0.19; droplet/nuclear area B-score, replicate 2 = 0.417. For Nph (Nucleophosmin) [DRSC16342], the values are droplet/nuclear area B-score, replicate 1 = 0.496; droplet/nuclear area B-score, replicate 2 = -0.225. Knock-down of MCU (Mitochondrial calcium uniporter) [DRSC10339] resulted in: droplet/nuclear area B-score, replicate 1 = -1.03; droplet/nuclear area B-score, replicate 2 = 2.49.
